# At least one structure is not confirmed: it was looked up by name or label, or the drawing left a doubt.
# Key:
# Format in all cases: in vivo
# [1] = system: SWISS male mice; assay: Electroencephalographic activity (class A derivatives); details: 0.6 mg/kg orally
# [2] = system: rabbit; assay: Effect on the duration of the curarization by succinylcholine (class D derivatives); details: anesthetized rabbit, 0.1 mg intravenously
# [3] = system: SWISS male mice; assay: Electroencephalographic activity (class D derivatives); details: 0.6 mg/kg orally
# [4] = system: SWISS male mice; assay: Electroencephalographic activity (class E derivatives); details: 0.6 mg/kg orally
# [5] = system: rabbit; assay: Effect on the duration of the curarization by succinylcholine (class A derivatives); details: anesthetized rabbit, 0.1 mg intravenously
# Text: . […] By using the same method (male rabbits of the tawny strain of Bourgogne; […]
smiles,measurement,setting,value
"CNC(=O)Oc1ccc2c(c1)[C@]1(C)CCN(C)[C@@H]1N2C [Physostigmine, physostigmine, reference compound]",modifications of the electroencephalogram,[1],The same variations
same,duration of the curare action of the succinylcholine,[2],significantly prolongs the duration of the curare action of the succinylcholine
same,modifications of the electroencephalogram,[3],The same variations
same,modifications of the electroencephalogram,[4],The same variations
same,duration of the curare action of the succinylcholine,[5],significantly prolonged the duration of the curare action of the succinylcholine

# Reference: patent EP0513703A2, “Carbamate esters of eseroline having anticholinesterase activity, a process for their preparation and relative pharmaceutical compositions containing them as the active principle” (priority 1991, dated 1992)
